This note sets out measurements from PMC4962050.

Sequences of proteins named here, by UniProt entry; tags and fusion partners are left off. Residues count along the entry.
UniProt P23819, residues 25-883: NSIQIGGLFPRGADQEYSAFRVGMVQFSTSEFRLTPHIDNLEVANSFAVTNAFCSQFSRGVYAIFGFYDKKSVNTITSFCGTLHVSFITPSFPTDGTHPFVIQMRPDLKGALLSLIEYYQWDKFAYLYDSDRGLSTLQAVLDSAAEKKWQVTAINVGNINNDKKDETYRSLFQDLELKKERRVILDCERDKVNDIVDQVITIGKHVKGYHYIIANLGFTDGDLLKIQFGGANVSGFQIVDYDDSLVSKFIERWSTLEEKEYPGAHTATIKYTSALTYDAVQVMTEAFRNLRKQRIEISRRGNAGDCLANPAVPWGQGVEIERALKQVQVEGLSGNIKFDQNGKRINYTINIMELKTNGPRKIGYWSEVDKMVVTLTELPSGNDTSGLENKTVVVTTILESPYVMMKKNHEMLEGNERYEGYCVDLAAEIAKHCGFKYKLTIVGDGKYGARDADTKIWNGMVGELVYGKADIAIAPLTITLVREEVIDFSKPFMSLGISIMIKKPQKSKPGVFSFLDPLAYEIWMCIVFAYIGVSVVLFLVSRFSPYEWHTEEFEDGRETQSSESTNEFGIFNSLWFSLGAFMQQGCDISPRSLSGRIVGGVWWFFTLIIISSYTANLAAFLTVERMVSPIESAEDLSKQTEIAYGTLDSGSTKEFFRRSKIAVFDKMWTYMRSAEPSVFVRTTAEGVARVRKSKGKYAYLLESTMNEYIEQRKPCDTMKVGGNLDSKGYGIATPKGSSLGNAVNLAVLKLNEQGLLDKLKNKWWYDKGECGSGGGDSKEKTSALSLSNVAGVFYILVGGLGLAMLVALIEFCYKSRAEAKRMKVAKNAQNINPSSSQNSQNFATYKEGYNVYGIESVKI
UniProt Q80UG2, residues 24-1893: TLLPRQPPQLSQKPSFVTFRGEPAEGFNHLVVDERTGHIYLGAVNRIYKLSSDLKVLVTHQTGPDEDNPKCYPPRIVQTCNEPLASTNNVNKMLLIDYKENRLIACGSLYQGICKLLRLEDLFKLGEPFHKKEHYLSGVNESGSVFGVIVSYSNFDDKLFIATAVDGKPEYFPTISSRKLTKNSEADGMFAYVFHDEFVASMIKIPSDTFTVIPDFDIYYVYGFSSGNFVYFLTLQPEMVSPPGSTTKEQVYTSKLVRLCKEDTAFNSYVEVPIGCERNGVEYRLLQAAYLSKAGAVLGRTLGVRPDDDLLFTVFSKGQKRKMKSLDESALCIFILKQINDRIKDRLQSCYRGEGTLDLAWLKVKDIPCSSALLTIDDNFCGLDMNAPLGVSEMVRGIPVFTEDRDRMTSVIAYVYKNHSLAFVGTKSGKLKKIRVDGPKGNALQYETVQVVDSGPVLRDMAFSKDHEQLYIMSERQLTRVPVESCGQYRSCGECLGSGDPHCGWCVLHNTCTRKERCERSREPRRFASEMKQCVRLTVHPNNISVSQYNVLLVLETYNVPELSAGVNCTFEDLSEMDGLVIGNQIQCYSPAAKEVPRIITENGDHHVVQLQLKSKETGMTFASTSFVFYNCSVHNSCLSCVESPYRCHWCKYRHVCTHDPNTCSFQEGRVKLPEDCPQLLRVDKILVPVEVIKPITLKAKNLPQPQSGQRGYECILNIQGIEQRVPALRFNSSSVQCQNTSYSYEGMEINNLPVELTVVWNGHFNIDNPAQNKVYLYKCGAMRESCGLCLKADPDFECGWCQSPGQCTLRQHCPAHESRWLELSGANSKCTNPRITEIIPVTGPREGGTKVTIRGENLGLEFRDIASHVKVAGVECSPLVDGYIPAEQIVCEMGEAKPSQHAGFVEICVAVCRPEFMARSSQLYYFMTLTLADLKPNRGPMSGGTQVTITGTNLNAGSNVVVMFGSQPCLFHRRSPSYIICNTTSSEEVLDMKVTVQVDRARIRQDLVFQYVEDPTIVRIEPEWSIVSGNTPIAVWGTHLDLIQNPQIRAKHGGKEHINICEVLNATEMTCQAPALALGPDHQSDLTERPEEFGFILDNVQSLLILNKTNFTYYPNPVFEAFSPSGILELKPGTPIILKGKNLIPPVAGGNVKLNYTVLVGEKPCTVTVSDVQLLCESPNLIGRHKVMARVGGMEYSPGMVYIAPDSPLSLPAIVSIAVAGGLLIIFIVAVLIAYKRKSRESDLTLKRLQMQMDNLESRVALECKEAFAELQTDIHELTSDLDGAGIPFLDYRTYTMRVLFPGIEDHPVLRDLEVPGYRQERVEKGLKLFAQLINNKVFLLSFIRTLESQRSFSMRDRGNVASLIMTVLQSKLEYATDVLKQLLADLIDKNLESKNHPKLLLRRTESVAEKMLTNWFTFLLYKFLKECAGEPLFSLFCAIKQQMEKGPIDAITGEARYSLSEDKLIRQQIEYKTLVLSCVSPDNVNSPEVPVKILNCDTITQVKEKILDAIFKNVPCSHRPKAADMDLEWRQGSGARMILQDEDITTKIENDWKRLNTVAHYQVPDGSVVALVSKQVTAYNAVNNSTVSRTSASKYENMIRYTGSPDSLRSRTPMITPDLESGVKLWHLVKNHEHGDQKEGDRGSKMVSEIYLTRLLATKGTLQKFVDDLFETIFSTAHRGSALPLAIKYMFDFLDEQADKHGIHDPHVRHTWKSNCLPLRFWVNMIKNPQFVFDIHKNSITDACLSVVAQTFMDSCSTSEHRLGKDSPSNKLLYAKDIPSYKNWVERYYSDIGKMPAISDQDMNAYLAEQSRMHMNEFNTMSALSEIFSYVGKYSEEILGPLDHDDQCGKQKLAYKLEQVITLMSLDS
UniProt P15116, residues 160-906: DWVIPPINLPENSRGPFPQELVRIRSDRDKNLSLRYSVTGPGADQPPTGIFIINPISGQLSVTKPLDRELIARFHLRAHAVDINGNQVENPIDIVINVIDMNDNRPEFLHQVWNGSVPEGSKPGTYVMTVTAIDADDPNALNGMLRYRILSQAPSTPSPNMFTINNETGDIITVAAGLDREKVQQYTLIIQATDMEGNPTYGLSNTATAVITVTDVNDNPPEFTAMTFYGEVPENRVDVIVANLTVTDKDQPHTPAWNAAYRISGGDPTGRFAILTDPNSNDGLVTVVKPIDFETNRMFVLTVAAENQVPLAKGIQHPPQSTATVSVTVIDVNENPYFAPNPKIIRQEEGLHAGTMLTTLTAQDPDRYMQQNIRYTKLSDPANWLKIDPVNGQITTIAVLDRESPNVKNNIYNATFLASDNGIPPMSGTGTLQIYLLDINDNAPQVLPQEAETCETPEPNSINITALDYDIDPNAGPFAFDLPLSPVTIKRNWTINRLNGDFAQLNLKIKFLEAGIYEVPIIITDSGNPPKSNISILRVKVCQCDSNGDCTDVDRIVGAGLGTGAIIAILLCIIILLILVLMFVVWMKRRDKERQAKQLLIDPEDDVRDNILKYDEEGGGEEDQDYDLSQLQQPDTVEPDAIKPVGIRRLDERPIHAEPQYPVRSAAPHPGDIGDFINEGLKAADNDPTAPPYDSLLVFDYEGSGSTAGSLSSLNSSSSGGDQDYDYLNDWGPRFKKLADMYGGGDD

Read-outs that look alike come from different tables or passages of the source. Results are given in words; binding and its absence hold for the method and conditions named. Binding seen in cells or lysates may run through a third protein. Some results given as binding are weak or reduced against the parent protein; the word gives no strength.

The target of experiment [1] is GluA2 subunit of AMPA receptors (mouse (endogenous in E16 brain)) (UniProt P23819). The experiment can be described thus: co-IP; 500–700 μg solubilized protein from E16 mouse brains (dams injected daily from E8 with saline or 5 nmol/g GluA2-G-Gpep), anti-GluA2 or control IgG 4 h at 4 °C, protein A/G plus agarose 12 h; Western blot.
For experiment [2] the target is unchanged. The experiment is described as above. This is another data set of the same source.

“Plexin A4 (from UniProt Q80UG2 24-1893) (receptor)”: the binding result in experiment [1] was “binds”.
For “N-cadherin (from UniProt P15116 160-906)”, the binding entry in experiment [1] is on record as “binds”.

B1: Neuronal activity-regulated pentraxin (Narp) (protein, UniProt O70340 15-429)
chain: AGRAQDSPIPGSRFVCTALPPEAARAGCPLPAMPMQGGALSPEEELRAAVLQLRETVVQQKETLGAQREAIRELTGKLARCEGLAGGKARGTGKDTMGDLPRDPGHVVEQLSRSLQTLKDRLESLELQLRTNVSNAGLPSDFREVLQRRLGELERQLLRKVAELEDEKSLLHNETSAHRQKTESTLNALLQRVTELERGNSAFKSPDAFKVSLPLRTNYLYGKIKKTLPELYAFTICLWLRSSASPGIGTPFSYAVPGQANEIVLIEWGNNPIELLINDKVAQLPLFVSDGKWHHICITWTTRDGMWEAFQDGEKLGTGENLAPWHPIKPGGVLILGQEQDTVGGRFDATQAFVGELSQFNIWDRVLRAQEIINIANCSTNMPGNIIPWVDNNVDVFGGASKWPVETCEERLLDL
Take B1: in experiment [2], the binding entry is “binds”.
